Source: publication PMC4748814

By UniProt entry, the sequences of proteins in these tests, tags left out. Where a name states a change or a piece, a line headed by the entry shows the natural chain unless it says otherwise.
UniProt P0A6X3: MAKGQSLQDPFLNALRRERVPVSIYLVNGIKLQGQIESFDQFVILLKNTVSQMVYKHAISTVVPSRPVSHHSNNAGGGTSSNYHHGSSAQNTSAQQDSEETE

Tests used:
Assay in all cases: EMSA
PNPase + Hfq = settings: ternary complex supershift; EMSA: 20 mM Tris pH 7.5, 100 mM NaCl, 1 mM MgCl2, 1 mM DTT, 30 C, 0.2 uM RNA; recombinant protein; probe letters rebuilt from the primers and the genome; part of a longer molecule
PNPase = target: T1, PNPase (UniProt P05055); settings: EMSA: 20 mM Tris pH 7.5, 100 mM NaCl, 1 mM MgCl2, 1 mM DTT, 30 C, 0.2 uM RNA, recombinant protein, probe letters rebuilt from the primers and the genome
T1 sequence (looked up, limits assumed): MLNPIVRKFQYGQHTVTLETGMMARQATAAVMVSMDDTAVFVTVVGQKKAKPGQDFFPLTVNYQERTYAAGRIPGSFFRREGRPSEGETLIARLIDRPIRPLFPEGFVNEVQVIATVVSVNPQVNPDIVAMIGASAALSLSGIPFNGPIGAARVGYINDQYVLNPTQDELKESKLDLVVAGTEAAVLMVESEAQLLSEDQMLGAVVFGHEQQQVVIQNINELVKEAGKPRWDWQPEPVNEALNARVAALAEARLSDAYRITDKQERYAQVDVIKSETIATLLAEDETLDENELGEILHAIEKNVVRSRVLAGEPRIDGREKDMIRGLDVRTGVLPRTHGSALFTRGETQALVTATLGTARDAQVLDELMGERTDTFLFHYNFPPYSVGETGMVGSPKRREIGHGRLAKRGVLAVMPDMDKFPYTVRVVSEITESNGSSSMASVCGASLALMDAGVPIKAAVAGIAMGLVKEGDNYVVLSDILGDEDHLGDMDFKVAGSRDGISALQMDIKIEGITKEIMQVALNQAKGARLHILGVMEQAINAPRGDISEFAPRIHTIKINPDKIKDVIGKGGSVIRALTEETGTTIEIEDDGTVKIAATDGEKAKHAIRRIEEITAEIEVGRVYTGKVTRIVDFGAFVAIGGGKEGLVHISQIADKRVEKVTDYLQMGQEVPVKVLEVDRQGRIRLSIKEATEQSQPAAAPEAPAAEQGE

[1] = target: PNPase S437-9A (active site mutant) S437A,S438A,S439A (UniProt P05055); settings: EMSA: 20 mM Tris pH 7.5, 100 mM NaCl, 1 mM MgCl2, 1 mM DTT, 30 C, 0.2 uM RNA; recombinant protein; probe letters rebuilt from the primers and the genome; part of a longer molecule
PNPase delta-S1 = PNPase delta-S1 (UniProt P05055); settings: EMSA: 20 mM Tris pH 7.5, 100 mM NaCl, 1 mM MgCl2, 1 mM DTT, 30 C, 0.2 uM RNA; recombinant protein; probe letters rebuilt from the primers and the genome; part of a longer molecule
[2] = system: PNPase S437-9A (active site mutant) + Hfq S437A,S438A,S439A; settings: supershift significantly reduced, EMSA: 20 mM Tris pH 7.5, 100 mM NaCl, 1 mM MgCl2, 1 mM DTT, 30 C, 0.2 uM RNA, recombinant protein, probe letters rebuilt from the primers and the genome
Hfq = Hfq (UniProt P0A6X3); settings: 0.2 uM Hfq; EMSA: 20 mM Tris pH 7.5, 100 mM NaCl, 1 mM MgCl2, 1 mM DTT, 30 C, 0.2 uM RNA; recombinant protein; probe letters rebuilt from the primers and the genome; part of a longer molecule
[3] = 2 mM sodium phosphate, 10 mM sodium tungstate, 30 nM PNPase

ACUUCCUGAGCCGGAACGAAAAGUUUUAUCGGAAUGCGUGUUCUGGUGAACUUUUGGCUUACGGUUGUGAUGUUGUGUUGUUGUGUUUGCAAUUGGUCUGCGAUUCAGACCAUGGUAGCAAAGCUACCUUUUUUCACUUCCUGUACAUUUACCCUGUCUGUCCAUAGUGAUUAAUGUAGCACCGCCUAAUUGCGGUGCUUUUUUUU [GcvB]
binding result (PNPase + Hfq): binds
binding result (PNPase; part of a longer molecule): binds
binding result [1]: binds more weakly
binding result (PNPase delta-S1): binds more weakly
binding result ([2]; part of a longer molecule): binds more weakly
binding result (Hfq): binds

GCGAUCAGGAAGACCCUCGCGGAGAACCUGAAAGCACGACAUUGCUCACAUUGCUUCCAGUAUUACUUAGCCAGCCGGGUGCUGGCUUUU [RyhB (4U)]
binding result (PNPase; [3]): binds

GCGAUCAGGAAGACCCUCGCGGAGAACCUGAAAGCACGACAUUGCUCACAUUGCUUCCAGUAUUACUUAGCCAGCCGGGUGCUGGCUUUUUUUUU [RyhB (9U)]
binding result [2]: binds more weakly

GCUGAAAAACAUAACCCAUAAAAUGCUAGCUGUACCAGGAACCACCUCCUUAGCCUGUGUAAUCUCCCUUACACGGGCUUAUUUUUU [CyaR]
binding result (PNPase; [3]): binds
binding result [2]: binds more weakly

Construct, isoform or probe ends are uncertain for at least one entry. For some of these results: A weaker result is weaker than the reference pair of the same experiment. For some of these results: At least one verdict rests on a figure or table, not on a statement of the authors. For some of these results: Where a protein sequence is shown, tags need not be part of it.
